# Data as given in PubChem BioAssay AID2551 (National Center for Advancing Translational Sciences (NCATS), 2010).
# By UniProt entry, the sequences of proteins in these tests, tags left out. Where a name states a change or a piece, a line headed by the entry shows the natural chain unless it says otherwise.
# UniProt P51450: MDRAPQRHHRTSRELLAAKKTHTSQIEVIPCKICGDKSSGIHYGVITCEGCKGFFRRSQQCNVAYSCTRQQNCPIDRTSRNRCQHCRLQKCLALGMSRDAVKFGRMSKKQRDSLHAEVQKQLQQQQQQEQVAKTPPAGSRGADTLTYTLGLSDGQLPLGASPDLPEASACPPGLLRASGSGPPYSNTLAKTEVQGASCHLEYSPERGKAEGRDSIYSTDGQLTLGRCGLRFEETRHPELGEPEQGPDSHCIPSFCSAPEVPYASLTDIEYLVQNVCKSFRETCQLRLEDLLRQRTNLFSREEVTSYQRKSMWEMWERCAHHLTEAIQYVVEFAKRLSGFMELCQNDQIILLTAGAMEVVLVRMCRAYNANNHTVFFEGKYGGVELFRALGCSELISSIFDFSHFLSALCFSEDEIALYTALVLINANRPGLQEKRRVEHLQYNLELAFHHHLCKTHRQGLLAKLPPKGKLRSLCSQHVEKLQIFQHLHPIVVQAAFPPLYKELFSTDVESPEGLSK
# The whole screen tested about 310,000 compounds, of which about 17,000 (5.5%) were called active. Inconclusive results, whose numbers are uncertain, are shown with a selection of clear calls. The call rests on the fitted dose curve; in most records, active means well fitted inhibition curve with a large enough effect; inconclusive means small, poorly fitted or top-dose-only effect, or effect the other way; inactive means no such curve, though single readings can be large or run the other way. Potencies of inconclusive entries are doubtful fits and often do not repeat.
# Target: Nuclear receptor ROR-gamma (Mus musculus) (UniProt P51450)
# Assay: qHTS for inhibitors of ROR gamma transcriptional activity; further: nearly all actives have a fitted effect of over 60% in size
# Conditions: Drosophila S2 Gal4-RORgamma UAS-luciferase reporter, 20 h; series mostly up to 53.6 µM
# Procedure, shortened: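 A Gal4/UAS one-hybrid system in insect cells: metallothionein-promoter Gal4–ROR gamma fusion plus Photinus luciferase reporter. Copper sulfate 700 uM final, 20 hr ambient incubation, luminescent detection after 10 min with reagent.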
# Potency means the concentration at half of the fitted maximal effect.
row,SMILES,Potency
1,NNc1nc2c(-c3ccc(Cl)cc3)nnn2c2ccccc12,"inconclusive: 35.5 µM [inhibitor, single point]"
2,O=C(CSc1nnc(-c2c[nH]c3ccccc23)o1)c1ccc(-c2ccccc2)cc1,"inconclusive: 5.01 µM [activator, single point]"
3,CC(C)C(CCNCc1ccccn1)c1ccc(Cl)cc1 (stereo not drawn),"inconclusive: 12.6 µM [inhibitor, partial curve]"
4,CC(C)c1ccc(NC(=S)Nc2cccc3ccccc23)cc1,active: 3.55 µM
5,CN(CC(=O)Nc1ccccc1Sc1ccccc1)Cc1nc2ccccc2c(=O)[nH]1,active: 0.447 µM
6,Oc1ccc(/C=C/c2nc(-c3ccccc3O)n(-c3ccccc3)n2)cc1,"inconclusive: 22.4 µM [inhibitor, single point]"
7,O=C(Cc1ccc(Cl)cc1)Nc1cccc(S(=O)(=O)Nc2ccccc2F)c1,"inconclusive: 12.6 µM [activator, single point]"
8,O=[N+]([O-])c1ccc(NC(=S)NCc2ccncc2)cc1,"inconclusive: 20 µM [activator, single point]"
9,O=C(/C=C/NNC(=O)c1ccccc1)c1ccccc1,active: 7.94 µM
10,Cc1cc([N+](=O)[O-])nn1CC(=O)N/N=C/c1ccccc1O,active: 2.24 µM
11,CCCCOc1ccc(-c2nc(=S)[nH][nH]2)cc1,"inconclusive: 10 µM [inhibitor, partial curve, poor fit]"
12,O=S(=O)(NCc1ccco1)c1ccc2c(c1)Cc1ccccc1-2,"inconclusive: 35.5 µM [inhibitor, single point]"
13,CN(Cc1ccccn1)C(=O)CC1C(=O)NCCN1Cc1ccc(F)cc1Cl (stereo not drawn),inactive
14,O=C1CCN(S(=O)(=O)c2ccccc2)CCN1CCOCc1ccc(C(F)(F)F)cc1,inactive
15,Cc1ccc(C(=O)Nc2cccc(C(F)(F)F)c2)cc1Nc1cnccn1,"inconclusive: 11.2 µM [activator, partial curve]"
16,O=C(N/N=C/C(Br)=C\c1ccccc1)c1n[nH]c2c1CCC2,"inconclusive: 35.5 µM [inhibitor, single point]"
17,O=C(/C=C/Nc1ccccc1Oc1ccccc1)c1ccco1,inactive
18,O=C(Nc1nccs1)c1cc(Cl)ccc1[N+](=O)[O-],active: 12.6 µM
19,COc1ccc(CNC(=O)CC23CC4CC(CC(C4)C2)C3)cc1,"inconclusive: 31.6 µM [activator, single point]"
20,COc1ccc2[nH]c(N=Nc3ccccc3C)c(O)c2c1,"inconclusive: 14.1 µM [activator, single point]"
21,Cc1ccc(N(CC(=O)N/N=C/c2cc(C)n(-c3ccccc3C)c2C)S(C)(=O)=O)cc1,"inconclusive: 25.1 µM [inhibitor, single point]"
22,Cc1cccc(/C=N/NC(=O)c2ccc(NC(=O)c3cccc(Cl)c3)cc2)n1,"inconclusive: 35.5 µM [inhibitor, single point]"
23,COc1cc(NC(=S)N2CCN(Cc3ccccc3)CC2)cc(OC)c1,"inconclusive: 15.8 µM [inhibitor, single point]"
24,Cc1ccc(NC(=S)N2CCC(NC(=O)c3cccc(F)c3)CC2)cc1,inactive

# Reformatted bar-delimited: entries from further up.
row | SMILES | Potency
4 | CC(C)c1ccc(NC(=S)Nc2cccc3ccccc23)cc1 | active: 3.55 µM
5 | CN(CC(=O)Nc1ccccc1Sc1ccccc1)Cc1nc2ccccc2c(=O)[nH]1 | active: 0.447 µM
10 | Cc1cc([N+](=O)[O-])nn1CC(=O)N/N=C/c1ccccc1O | active: 2.24 µM
11 | CCCCOc1ccc(-c2nc(=S)[nH][nH]2)cc1 | inconclusive: 10 µM [inhibitor, partial curve, poor fit]
12 | O=S(=O)(NCc1ccco1)c1ccc2c(c1)Cc1ccccc1-2 | inconclusive: 35.5 µM [inhibitor, single point]
13 | CN(Cc1ccccn1)C(=O)CC1C(=O)NCCN1Cc1ccc(F)cc1Cl (stereo not drawn) | inactive
16 | O=C(N/N=C/C(Br)=C\c1ccccc1)c1n[nH]c2c1CCC2 | inconclusive: 35.5 µM [inhibitor, single point]
17 | O=C(/C=C/Nc1ccccc1Oc1ccccc1)c1ccco1 | inactive
21 | Cc1ccc(N(CC(=O)N/N=C/c2cc(C)n(-c3ccccc3C)c2C)S(C)(=O)=O)cc1 | inconclusive: 25.1 µM [inhibitor, single point]
22 | Cc1cccc(/C=N/NC(=O)c2ccc(NC(=O)c3cccc(Cl)c3)cc2)n1 | inconclusive: 35.5 µM [inhibitor, single point]

# The list goes on:

row,SMILES,Potency
1,CCOC(=O)N1CCN(Cc2cc(=O)oc3ccc4ccccc4c23)CC1,"inconclusive: 1.26 µM [inhibitor, full curve]"
2,O=C(NCCC1=CCCCC1)C1CCC(CNc2nc(=S)[nH]c3ccccc23)CC1 (stereo not drawn),"inconclusive: 11.2 µM [inhibitor, single point]"
3,COc1ccc(/C(C)=N/OC/C(O)=C(\C#N)c2nc3ccccc3[nH]2)c(OC)c1,active: 20 µM
4,Cc1ccc(-n2c(=S)[nH]c3c(oc4ccccc43)c2=O)cc1C,active: 1.41 µM
5,CC(=O)Nc1ccc(S(=O)(=O)N2CCN(c3ccc([N+](=O)[O-])cc3)CC2)cc1,"inconclusive: 25.1 µM [activator, partial curve]"
6,COc1ccc(NC(=O)C2CC(=O)OC23CCCCC3)cc1 (stereo not drawn),"inconclusive: 35.5 µM [inhibitor, single point]"
7,O=C(Cn1nc([N+](=O)[O-])nc1Br)NC(c1ccccc1)c1ccccc1,"inconclusive: 11.2 µM [inhibitor, partial curve]"
8,COc1ccc(/C=C/C(=O)N2CCN(C)CC2)cc1OC,"inconclusive: 35.5 µM [inhibitor, single point]"
9,Cc1ccc(C(=O)Nc2cccc(C(=O)NCc3ccco3)c2)cc1,inactive
10,O=C(c1cc(-c2ccc(O)cc2)on1)N1CCOCC1,"inconclusive: 3.98 µM [inhibitor, partial curve]"
11,COc1ccc(/C=N/Nc2cc(=O)n(C)c(=O)n2C)cc1OC,inactive
12,COc1ccc(Cl)cc1NC(=O)c1[nH]nc(OC)c1[N+](=O)[O-],active: 3.55 µM
13,O=C(NC(=S)Nc1ccc(S(=O)(=O)N2CCCC2)cc1)c1cccs1,active: 4.47 µM
14,Clc1ccc(Cn2ncc3c(NCc4ccccc4)ncnc32)cc1,"inconclusive: 25.1 µM [activator, single point]"
15,CCCN1C(=O)c2cc(C(=O)O)ccc2C1O (stereo not drawn),inactive
16,CCOC(=O)c1cc(NC(=O)Nc2nccs2)c(C)nc1C,"inconclusive: 17.8 µM [activator, single point]"
17,Cc1cc(SCC(=O)OC/C(O)=C(\C#N)c2nc3ccccc3[nH]2)c(C)cc1Br,active: 6.31 µM
18,Cc1cc(Cl)c(S(=O)(=O)NC2CCCCC2)cc1OCC(=O)Nc1nncs1,inactive
19,O=C(/C=C/c1cccs1)Nc1scc(-c2ccccc2)c1C(=O)O,active: 10 µM
20,CC(=O)NNC(=O)CCn1c2c(c3ccccc31)CCCC2,inactive
21,Cc1ccc2c(cnn2C(=O)CCC(=O)NCc2cccc(Cl)c2)c1,inactive
22,O=C(Nc1nc2ccccc2s1)c1ccccc1[N+](=O)[O-],"inconclusive: 6.31 µM [activator, single point]"
23,CCc1ccccc1NS(=O)(=O)c1ccc(SC)cc1,"inconclusive: 0.0079 µM [activator, full curve, poor fit]"
24,C=C1c2cc(CC)ccc2NC(=O)N1c1ccc(C)cc1,"inconclusive: 12.6 µM [activator, partial curve]"
